Data from the supplement of paper PMC6078165.
The reference is the same well before dosing, and untreated signal decays as well.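 Fibroblast labels denote human fibroblasts, mainly primary ones from uterus (C12385, HUF), lung (H6013), bone (Hs27A), adrenal (HADF) and skin (WS1), plus mammary HMF and breast cancer-associated Hs343T. Cancer cells are basal-like or mesenchymal-like triple-negative breast cancer lines. A hit is a response shift exceeding 3x replicate standard deviation. The tissue of the other fibroblasts is not given here.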

Tested on: MDAMB468
Test: relative JC-1 red fluorescence (viability) vs pre-drug, coculture with fibroblast (fraction); higher = more viable cancer cells
Method: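 JC-1 labelled TNBC cells cocultured 1:1 (1,500 cells each) with CellTrace Violet stained primary or stromal fibroblasts in 384-well plates in FluoroBrite medium, treated with one of 42 anticancer drugs at 0.1, 1, 10 or 100 uM. JC-1 red fluorescence (mitochondrial integrity in cancer cells only) was read by plate reader every 8 h for 72 h. Values are normalised to each well's pre-drug value. The stock of one drug was tenfold lower, so its dose labels may be too high.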

CC(C)C[C@H](NC(=O)[C@@H](COC(C)(C)C)NC(=O)[C@H](Cc1ccc(O)cc1)NC(=O)[C@H](CO)NC(=O)[C@H](Cc1c[nH]c2ccccc12)NC(=O)[C@H](Cc1cnc[nH]1)NC(=O)[C@@H]1CCC(=O)N1)C(=O)N[C@@H](CCCNC(=N)N)C(=O)N1CCC[C@H]1C(=O)NNC(N)=O [Goserelin]
relative JC-1 red fluorescence
Conditions	8 h	16 h	24 h	32 h	40 h	48 h	56 h	64 h	72 h
10 µM, coculture fibroblast: C12385	0.8936	0.813	0.764	0.7	0.65	0.623	0.579	0.54	0.515
10 µM, coculture fibroblast: H6013	0.894	0.852	0.825	0.81	0.781	0.799	0.78	0.767	0.726
10 µM, coculture fibroblast: H6019	0.7985	0.787	0.762	0.719	0.673	0.658	0.612	0.572	0.544
10 µM, coculture fibroblast: H6076	0.9196	0.963	0.894	0.89287	0.824	0.8244	0.7819	0.77	0.804
10 µM, coculture fibroblast: H6231	0.8589	0.935	0.81903	0.8239	0.764	0.744	0.687	0.664	0.662
10 µM, coculture fibroblast: HADF	0.9027	0.844	0.799	0.788	0.736	0.721	0.676	0.655	0.611
10 µM, coculture fibroblast: HCFa	0.8531	0.837	0.786	0.748	0.687	0.679	0.62	0.582	0.548
10 µM, coculture fibroblast: HCPF	0.9	0.893	0.8713	0.8825	0.81	0.7839	0.733	0.719	0.702
10 µM, coculture fibroblast: HHSteC	0.879	0.861	0.818	0.7819	0.744	0.74	0.67	0.646	0.596
10 µM, coculture fibroblast: HMF	0.845	0.9357	0.8744	0.8642	0.7882	0.7722	0.7199	0.7082	0.6859
10 µM, coculture fibroblast: HPFa	0.9413	0.899	0.869	0.816	0.789	0.794	0.721	0.693	0.61
10 µM, coculture fibroblast: HUF	0.917	0.821	0.781	0.716	0.661	0.636	0.593	0.569	0.553
10 µM, coculture fibroblast: Hs5	0.853	0.9426	0.895	0.8627	0.79	0.761	0.729	0.692	0.707
10 µM, coculture fibroblast: Hs27A	0.84	0.812	0.766	0.769	0.711	0.704	0.653	0.619	0.576
10 µM, coculture fibroblast: Hs343T	0.89722	0.954	0.899	0.876	0.806	0.779	0.725	0.699	0.669
10 µM, coculture fibroblast: WS1	0.8544	0.7793	0.729	0.66665	0.615	0.582	0.544	0.504	0.487
100 µM, coculture fibroblast: C12385	0.8916	0.849	0.823	0.761	0.7195	0.697	0.65428	0.622	0.606
100 µM, coculture fibroblast: H6013	0.8991	0.856	0.808	0.787	0.765	0.762	0.733	0.725	0.667
100 µM, coculture fibroblast: H6019	0.842	0.8287	0.817	0.766	0.716	0.69	0.636	0.601	0.577
100 µM, coculture fibroblast: H6076	0.946	0.961	0.94	0.969	0.91	0.9192	0.895	0.889	0.929
100 µM, coculture fibroblast: H6231	0.8504	0.907	0.849	0.852	0.784	0.77	0.728	0.696	0.684
100 µM, coculture fibroblast: HADF	0.924	0.852	0.834	0.824	0.78	0.779	0.732	0.72	0.674
100 µM, coculture fibroblast: HCFa	0.889	0.8527	0.8032	0.7837	0.7234	0.722	0.6654	0.636	0.585
100 µM, coculture fibroblast: HCPF	0.931	0.982	0.951	0.946	0.861	0.84	0.793	0.784	0.779
100 µM, coculture fibroblast: HHSteC	0.911	0.884	0.8529	0.8295	0.788	0.784	0.724	0.697	0.65
100 µM, coculture fibroblast: HMF	0.857	0.952	0.895	0.876	0.799	0.7845	0.7294	0.7082	0.6957
100 µM, coculture fibroblast: HPFa	0.955	0.929	0.917	0.866	0.832	0.83	0.755	0.721	0.639
100 µM, coculture fibroblast: HUF	0.911	0.859	0.8132	0.745	0.703	0.678	0.637	0.61	0.587
100 µM, coculture fibroblast: Hs5	0.798	0.9333	0.9041	0.884	0.808	0.781	0.742	0.712	0.733
100 µM, coculture fibroblast: Hs27A	0.878	0.814	0.797	0.801	0.743	0.736	0.696	0.661	0.612
100 µM, coculture fibroblast: Hs343T	0.921	0.966	0.944	0.942	0.86	0.841	0.78	0.762	0.744
100 µM, coculture fibroblast: WS1	0.912	0.826	0.7912	0.723	0.685	0.654	0.615	0.573	0.553
